According to paper PMC11832904:
No constants are given. Whether binding was seen depends on the method and setting. In cells and extracts the contact can be indirect. Some binding calls cover weakened binding; strength is not graded here.

Sequences of proteins named here, by UniProt entry; tags and fusion partners are left off. A change or cut given only in a name is not applied to a line headed by its entry. A line that says so, or that is headed by a name, gives the form on record, which may keep a tag or linker.
V1-FAM134B2/V2-FAM134B2 (Q9H6L5, form named): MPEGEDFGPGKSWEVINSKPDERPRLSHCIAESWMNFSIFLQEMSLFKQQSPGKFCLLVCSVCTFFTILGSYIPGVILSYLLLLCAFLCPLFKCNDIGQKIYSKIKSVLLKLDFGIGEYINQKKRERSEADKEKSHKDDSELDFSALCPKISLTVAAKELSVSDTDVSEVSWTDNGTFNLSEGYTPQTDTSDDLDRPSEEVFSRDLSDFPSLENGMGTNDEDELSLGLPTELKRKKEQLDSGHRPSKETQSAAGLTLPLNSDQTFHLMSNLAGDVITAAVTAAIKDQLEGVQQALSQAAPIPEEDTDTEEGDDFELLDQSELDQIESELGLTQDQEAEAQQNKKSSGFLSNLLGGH
UniProt Q9DCD6: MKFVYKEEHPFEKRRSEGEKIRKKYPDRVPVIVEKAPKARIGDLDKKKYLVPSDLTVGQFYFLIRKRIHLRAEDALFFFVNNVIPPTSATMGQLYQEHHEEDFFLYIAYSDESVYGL

Molecular target: V1-FAM134B2/V2-FAM134B2 (human) (UniProt Q9H6L5)
Assay: co-IP; IP of the GFP tag in C2C12 cells expressing V1/V2-FAM134B1 or V1/V2-FAM134B2, Western blot for Lc3b and Gabarap

binding: binds
Substance: Gabarap (endogenous) (from UniProt Q9DCD6 1-117)
